Test results published in patent US7531530B2, “Therapeutic compounds” (Cancer Research Technology Limited, priority 2003, dated 2009).
For at least one compound, name, drawing or mass did not settle the structure.

System: SW620 xenografts
Test: Tumour growth in mice bearing SW620 xenografts
Format: in vivo
Settings: temozolomide alone 68 mg/kg daily×5, for 20 days from administration; increases shortly after
From the text: FIG. 8 is a graph showing the tumour growth (median relative tumour volume) in mice bearing SW620 xenografts following treatment with formula III in combination with temozolomide (TMZ) and with TMZ alone;
FIG. 9 is a graph showing the tumour growth (median relative tumour volume) of mice bearing SW620 xenografts following treatment with formula I-phosphate in combination with temozolomide (TMZ) and with formula I-phosphate and TMZ alone;
However, shortly after this time the tumour size begins to increase.

Cn1nnc2c(C(N)=O)ncn2c1=O [ternolozomide, temozolomide, reference compound]
tumour xenograft size: progressively reduced in size
